Measurements from US20260256792A1, “TREATMENT OF CHRONIC SPONTANEOUS URTICARIA BY ADMINISTERING (R)-2-[3-[4-AMINO-3-(2-FLUORO-4-PHENOXY-PHENYL)PYRAZOLO[3,4-D]PYRIMIDIN-1-YL]PIPERIDINE-1-CARBONYL]-4-METHYL-4-[4-(OXETAN-3-YL)PIPERAZIN-1-YL]PENT-2-ENENITRILE” (priority 2023, published 2026).
This continues a long series; more values of the same kind are listed elsewhere.

System: moderate-to-severe chronic spontaneous urticaria (CSU)
Assay: Phase 2 CSU study: urticaria activity score over 7 days (UAS7)
Assay type: in vivo, human
Set-up: key to UAS7 Change from baseline LS Mean (SE): UAS7 points; daily UAS score ranges 0–6 points/day, over 7 days
Settings: for UAS7 % Change difference for rilzabrutinib vs. placebo LS Mean (95% CI) / UAS7 % Change from baseline LS Mean (SE) / UAS7 Change difference for rilzabrutinib vs. placebo LS Mean (95% CI) / UAS7 Change from baseline LS Mean (SE): Omalizumab-Naïve Population; for Change from Baseline in UAS7 at Week 12: LS Mean Diff vs. placebo (95% CI): Omalizumab-Naïve, Age group (years) ≥65
Description: The study comprises a 12 week, randomized, double-blind, placebo-controlled, multi-center, dose-ranging efficacy and safety phase, followed by a 40 week open label extension (OLE) phase (see FIG. 1). The study consists of three phases and an optional OLE phase. […] Clinically, CSU is characterized by the spontaneous and recurrent appearance of pruritic hives. The proposed primary endpoints were the UAS7 at Week 12 in EU and EU reference countries and the ISS7 in the US. Regardless of where a participant was from, all assessments were the same. The UAS7 score is a composite score containing both the HSS7 and the ISS7. This allowed a global assessment of the two key components of urticaria: hives and itch. […] The UAS is a validated PRO measure. […] The daily UAS scores range from 0 to 6 point/day. […] Patients were to complete the UAS using the e-diary. […] The following secondary endpoints were to be analyzed using the same approach as for the primary endpoint: • Change from baseline in UAS7 at Week 4 • Change from baseline in UAS7 at Week 12 (for US and US reference countries) • Change from baseline in ISS7 at Week 12 (except US and US reference countries) • Change from baseline in HSS7 at Week 12 The following responder secondary endpoints were to be analyzed using the Cochran-Mantel-Haenszel test adjusted by region: • Proportion of participants with UAS7<6 at Week 12 • Proportion of participants with UAS7=0 at Week 12 Participants who received selected prohibited medications and/or rescue medications were to be considered as non-responders for time points after the medication usage. For other participants, all available data including those collected during the off-treatment period were to be used to determine the responder/non-responder status. Missing data were to be considered as non-responders.

CC(C)(C=C(C#N)C(=O)N1CCC[C@@H](n2nc(-c3ccc(Oc4ccccc4)cc3F)c3c(N)ncnc32)C1)N1CCN(C2COC2)CC1 [rilzabrutinib, (R)-2-[3-[4-amino-3-(2-fluoro-4-phenoxy-phenyl)pyrazolo[3,4-d]pyrimidin-1-yl]piperidine-1-carbonyl]-4-methyl-4-[4-(oxetan-3-yl)piperazin-1-yl]pent-2-enenitrile]
UAS7 % Change difference for rilzabrutinib vs. placebo LS Mean (95% CI) (400 mg BID, Week 8): −22.63% | UAS7 % Change from baseline LS Mean (SE) (400 mg BID, Week 8): −53.47 (6.30) % | UAS7 Change difference for rilzabrutinib vs. placebo LS Mean (95% CI) (400 mg BID, Week 8): −5.54 | UAS7 Change from baseline LS Mean (SE) (400 mg BID, Week 8): −15.47 (1.87) | UAS7 % Change difference for rilzabrutinib vs. placebo LS Mean (95% CI) (400 mg BID, Week 9): −25.82% | UAS7 % Change from baseline LS Mean (SE) (400 mg BID, Week 9): −52.38 (6.34) % | UAS7 Change difference for rilzabrutinib vs. placebo LS Mean (95% CI) (400 mg BID, Week 9): −6.16 | UAS7 Change from baseline LS Mean (SE) (400 mg BID, Week 9): −14.84 (1.91) | UAS7 % Change difference for rilzabrutinib vs. placebo LS Mean (95% CI) (400 mg BID, Week 10): −21.17% | UAS7 % Change from baseline LS Mean (SE) (400 mg BID, Week 10): −51.13 (6.68) % | UAS7 Change difference for rilzabrutinib vs. placebo LS Mean (95% CI) (400 mg BID, Week 10): −5.22 | UAS7 Change from baseline LS Mean (SE) (400 mg BID, Week 10): −14.89 (2.00) | UAS7 % Change difference for rilzabrutinib vs. placebo LS Mean (95% CI) (400 mg BID, Week 11): −21.65% | UAS7 % Change from baseline LS Mean (SE) (400 mg BID, Week 11): −49.86 (6.78) % | UAS7 Change difference for rilzabrutinib vs. placebo LS Mean (95% CI) (400 mg BID, Week 11): −5.29 | UAS7 Change from baseline LS Mean (SE) (400 mg BID, Week 11): −14.56 (1.97) | UAS7 % Change difference for rilzabrutinib vs. placebo LS Mean (95% CI) (400 mg QPM, Week 5): 0.93% | UAS7 % Change from baseline LS Mean (SE) (400 mg QPM, Week 5): −31.92 (5.50) % | UAS7 Change difference for rilzabrutinib vs. placebo LS Mean (95% CI) (400 mg QPM, Week 5): 0.36 | UAS7 Change from baseline LS Mean (SE) (400 mg QPM, Week 5): −10.08 (1.67) | UAS7 % Change difference for rilzabrutinib vs. placebo LS Mean (95% CI) (400 mg QPM, Week 6): −6.75% | UAS7 % Change from baseline LS Mean (SE) (400 mg QPM, Week 6): −33.30 (6.14) % | UAS7 Change difference for rilzabrutinib vs. placebo LS Mean (95% CI) (400 mg QPM, Week 6): −1.28 | UAS7 % Change difference for rilzabrutinib vs. placebo LS Mean (95% CI) (400 mg QPM, Week 7): −5.67% | UAS7 % Change from baseline LS Mean (SE) (400 mg QPM, Week 7): −34.23 (5.85) % | UAS7 Change difference for rilzabrutinib vs. placebo LS Mean (95% CI) (400 mg QPM, Week 7): −1.12 | UAS7 Change from baseline LS Mean (SE) (400 mg QPM, Week 7): −10.55 (1.74) | UAS7 % Change difference for rilzabrutinib vs. placebo LS Mean (95% CI) (400 mg QPM, Week 8): −3.78% | UAS7 % Change from baseline LS Mean (SE) (400 mg QPM, Week 8): −34.61 (6.22) % | UAS7 Change difference for rilzabrutinib vs. placebo LS Mean (95% CI) (400 mg QPM, Week 8): −0.47 | UAS7 Change from baseline LS Mean (SE) (400 mg QPM, Week 8): −10.40 (1.83) | UAS7 % Change difference for rilzabrutinib vs. placebo LS Mean (95% CI) (400 mg QPM, Week 9): −9.34% | UAS7 % Change from baseline LS Mean (SE) (400 mg QPM, Week 9): −35.89 (6.15) % | UAS7 Change difference for rilzabrutinib vs. placebo LS Mean (95% CI) (400 mg QPM, Week 9): −2.36 | UAS7 Change from baseline LS Mean (SE) (400 mg QPM, Week 9): −11.03 (1.86) | UAS7 % Change difference for rilzabrutinib vs. placebo LS Mean (95% CI) (400 mg QPM, Week 10): −7.06% | UAS7 % Change from baseline LS Mean (SE) (400 mg QPM, Week 10): −37.03 (6.40) % | UAS7 Change difference for rilzabrutinib vs. placebo LS Mean (95% CI) (400 mg QPM, Week 10): −1.58 | UAS7 Change from baseline LS Mean (SE) (400 mg QPM, Week 10): −11.25 (1.92) | UAS7 % Change difference for rilzabrutinib vs. placebo LS Mean (95% CI) (400 mg QPM, Week 11): −7.47% | UAS7 % Change from baseline LS Mean (SE) (400 mg QPM, Week 11): −35.67 (6.65) % | UAS7 Change difference for rilzabrutinib vs. placebo LS Mean (95% CI) (400 mg QPM, Week 11): −1.36 | UAS7 Change from baseline LS Mean (SE) (400 mg QPM, Week 11): −10.63 (1.93) | UAS7 % Change difference for rilzabrutinib vs. placebo LS Mean (95% CI) (400 mg TID, Week 5): −19.17% | UAS7 % Change from baseline LS Mean (SE) (400 mg TID, Week 5): −52.02 (5.69) % | UAS7 % Change difference for rilzabrutinib vs. placebo LS Mean (95% CI) (400 mg TID, Week 6): −24.10% | UAS7 % Change from baseline LS Mean (SE) (400 mg TID, Week 6): −50.65 (6.35) % | UAS7 Change difference for rilzabrutinib vs. placebo LS Mean (95% CI) (400 mg TID, Week 6): −5.94 | UAS7 Change from baseline LS Mean (SE) (400 mg TID, Week 6): −15.12 (1.90) | UAS7 % Change difference for rilzabrutinib vs. placebo LS Mean (95% CI) (400 mg TID, Week 7): −24.35% | UAS7 % Change from baseline LS Mean (SE) (400 mg TID, Week 7): −52.91 (6.13) % | UAS7 Change difference for rilzabrutinib vs. placebo LS Mean (95% CI) (400 mg TID, Week 7): −6.37 | UAS7 Change from baseline LS Mean (SE) (400 mg TID, Week 7): −15.80 (1.80) | UAS7 % Change difference for rilzabrutinib vs. placebo LS Mean (95% CI) (400 mg TID, Week 8): −20.07% | UAS7 % Change from baseline LS Mean (SE) (400 mg TID, Week 8): −50.90 (6.49) % | UAS7 Change difference for rilzabrutinib vs. placebo LS Mean (95% CI) (400 mg TID, Week 8): −5.11 | UAS7 Change from baseline LS Mean (SE) (400 mg TID, Week 8): −15.04 (1.96) | UAS7 % Change difference for rilzabrutinib vs. placebo LS Mean (95% CI) (400 mg TID, Week 9): −25.99% | UAS7 % Change from baseline LS Mean (SE) (400 mg TID, Week 9): −52.54 (6.34) % | UAS7 Change difference for rilzabrutinib vs. placebo LS Mean (95% CI) (400 mg TID, Week 9): −7.07 | UAS7 Change from baseline LS Mean (SE) (400 mg TID, Week 9): −15.75 (1.93) | UAS7 % Change difference for rilzabrutinib vs. placebo LS Mean (95% CI) (400 mg TID, Week 10): −24.83% | UAS7 Change difference for rilzabrutinib vs. placebo LS Mean (95% CI) (400 mg TID, Week 10): −6.54 | UAS7 Change from baseline LS Mean (SE) (400 mg TID, Week 10): −16.20 (1.97) | UAS7 % Change difference for rilzabrutinib vs. placebo LS Mean (95% CI) (400 mg TID, Week 11): −25.26% | UAS7 % Change from baseline LS Mean (SE) (400 mg TID, Week 11): −53.47 (6.81) % | UAS7 Change difference for rilzabrutinib vs. placebo LS Mean (95% CI) (400 mg TID, Week 11): −6.58 | UAS7 Change from baseline LS Mean (SE) (400 mg TID, Week 11): −15.86 (1.96) | UAS7 % Change difference for rilzabrutinib vs. placebo LS Mean (95% CI) (400 mg TID, Week 12): −26.61% | UAS7 % Change from baseline LS Mean (SE) (400 mg TID, Week 12): −56.89 (6.92) % | UAS7 Change difference for rilzabrutinib vs. placebo LS Mean (95% CI) (400 mg TID, Week 12): −6.75 | UAS7 Change from baseline LS Mean (SE) (400 mg TID, Week 12): −16.89 (2.04) | Change from Baseline in UAS7 at Week 12: LS Mean Diff vs. placebo (95% CI) (400 mg BID): −23.31 (−51.77, 5.15) | Change from Baseline in UAS7 at Week 12: LS Mean Diff vs. placebo (95% CI) (400 mg TID): −25.27 (−49.57, −0.97)
